The campaign covered roughly 340,000 compounds. About 170 (0.05%) were called active. The inconclusive results got no clear call from the source; some entries with a clear call stand among them for comparison. Calls come from the whole dose curve; as a rule, active = well fitted inhibition curve with a large enough effect in the signal ratio, with a control signal flat (not every such curve was filed as active); inconclusive = small, poorly fitted or top-dose-only effect, or effect the other way, or a change in a side signal; inactive = flat fitted curve, though single readings scatter; the % refers to the signal ratio. Where the call is inconclusive, the potency comes from a doubtful curve fit.
Assay: qHTS Assay to Find Inhibitors of Chronic Active B-Cell Receptor Signaling;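 for activity change, negative = inhibition: plate controls were basal doxycycline-induced cells for no effect and cells given 10 µM MG132 for full effect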
Conditions: ABC-DLBCL IkBa-CBG/CBR reporter, luminescence ratio (green luciferase fused to IkBa over red control in TMD8 lymphoma cells), 4 h; activity change, negative = inhibition: at 46.1 µM (top of the series)
How it was run: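 Compounds up to 46 uM were incubated four hours with TMD8 cells whose green CBG68 luciferase is fused to IkappaBalpha; red CBR luminescence normalised the signal, and concentration-effect curves were fitted to fusion, red and ratio data.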
Potency is the fitted concentration of half-maximal effect.

Row | SMILES | Potency | activity change, negative = inhibition
1 | C=CCNc1nc(Nc2ccc(Cl)cc2)nc(OC)n1 | inconclusive: 2.82 µM [rising, partial curve, poor fit] | 
2 | CC(/C=N\NC(=O)c1ccc2c(c1)OCO2)c1ccccc1 (stereo unspecified) | inconclusive: 11.2 µM [falling, partial curve] | 
3 | COc1ccc(Cn2cccc(NC(=O)Nc3cccc(OC)c3)c2=O)cc1 |  | inconclusive: 0.673%
4 | O=C(COC(=O)c1n[nH]c2ccccc12)NC(=O)NC1CCCC1 | inconclusive: 18.4 µM [falling, partial curve] | 
5 | CCSc1nnc(-c2cnn(-c3ccccc3)c2-n2cccc2)n1C |  | inconclusive: -0.333%
6 | O=C(CCc1nnc(Cc2ccc3c(c2)OCO3)o1)NCc1nc2ccccc2s1 |  | inconclusive: -27.1%
7 | CCN(CC)CCOC(=O)CCc1cccc2ccccc12 |  | inactive: -6.15%
8 | COC(=O)CCNC(=O)CCc1ccc(S(=O)(=O)N2CCCCCC2)cc1 |  | inactive: 4.09%
9 | CCOC(=O)c1[nH]c(C)c(/C(O)=C2\C(=O)C(=O)N(CCN(C)C)C2c2ccncc2)c1C (stereo unspecified) | inconclusive: 16.4 µM [falling, partial curve, poor fit] | 
10 | NNC(=O)CN1C(c2ccc(Br)cc2)=Nc2ccc(Br)cc2C1c1ccccc1 (stereo unspecified) |  | inconclusive: -0.0258%
11 | CC(C(=O)Nc1ccccc1-c1ccccc1)N1CCN(C(=O)c2ccccc2)CC1 (stereo unspecified) |  | inconclusive: -15.4%
12 | N#Cc1c(-c2cccs2)cc(C2CC2)nc1SCC(N)=O |  | inactive: 1.1%
13 | CCOC(=O)c1[nH]c(C)c(C(=O)OCC(=O)NC2CCS(=O)(=O)C2)c1C (stereo unspecified) | inconclusive: 12.6 µM [falling, partial curve] | 
14 | Oc1ccc(C23CC4CC(CC(C4)C2)C3)cc1O |  | inactive: -5.93%
15 | CN1CCCN(Cc2nc(-c3ccc(Cl)cc3)no2)CC1 |  | inactive: 8.36%
16 | O=C(NCCCN1CCOCC1)c1ccc2c(c1)N(Cc1ccccc1F)C(=O)c1ccccc1S2=O (stereo unspecified) |  | inconclusive: -3.34%
17 | Nc1c(C(=O)Nc2ccccc2F)sc2nc(-c3ccco3)ccc12 |  | inconclusive: -0.341%
18 | O=[N+]([O-])c1ccc(O)c(/C=N/Nc2ccc(Cl)nn2)c1 | inconclusive: 10 µM [falling, partial curve] | 
19 | CCCc1nnc(NC(=O)CCC(=O)N2CCN(c3ccccn3)CC2)s1 |  | inconclusive: 3.27%
20 | O=C(NCc1cccc(Cl)c1)NC(=O)c1csc([N+](=O)[O-])c1 |  | inconclusive: 4.9%
21 | COc1ccc(S(=O)(=O)N2CCOCC2)cc1C(=O)Nc1cc(C)on1 |  | inconclusive: -0.506%

Row | SMILES | Potency | activity change, negative = inhibition
22 | Cc1c(Cl)cccc1NC(=S)NNS(=O)(=O)c1ccc([N+](=O)[O-])cc1 |  | inconclusive: -16.1%
23 | CC(C)C(=O)NC(CC(=O)O)c1ccccc1 (stereo unspecified) |  | inactive: -1.69%
24 | NNC(=O)CN1C(c2ccccc2Br)=Nc2ccc(Br)cc2C1c1ccccc1 (stereo unspecified) |  | inconclusive: 12%
25 | CCOC(=O)CN1C(=O)S/C(=C/c2cc(C)n(-c3ccccn3)c2C)C1=O |  | inconclusive: -1.65%
26 | Cc1ccc(/C=N/NC(=O)c2cc3c(ccc4ccccc43)o2)o1 |  | inactive: 0.502%
27 | CCOC(=O)c1ccc(Nc2nc(-c3cccnc3)nc3ccccc23)cc1 |  | inconclusive: 5.57%
28 | O=C1C=C(NCc2ccccc2)C2(CCCCC2)O1 |  | inactive: -1.85%
29 | COc1ccc(/C=N/NC(=O)C2c3ccccc3Oc3ccccc32)c(OC)c1 |  | inconclusive: 1.08%
30 | Cc1ccc2nc(SCC(=O)N(CC(C)C)c3c(N)n(Cc4ccccc4)c(=O)[nH]c3=O)[nH]c2c1 |  | inactive: 9.22%
31 | COCCCn1c(SCC(=O)Nc2oc(C)c3c(C)n[nH]c(=O)c23)nc2ccccc2c1=O | inconclusive: 10.3 µM [falling, partial curve, poor fit] | 
32 | N#Cc1cn(-c2ccccc2)nc1-c1cc2ccccc2oc1=O |  | inconclusive: 6.63%
33 | Cc1cccc(CCN2CCN=C2Nc2ccccc2)c1 |  | inactive: -3.49%
34 | O=c1onc(-c2ccc(Cl)cc2)n1Cc1ccc(F)cc1 |  | inactive: 5.15%
35 | O=C(Nc1ccc(F)c([N+](=O)[O-])c1)c1ccc2c(c1)C(=O)OC2=O | inconclusive: 10 µM [falling, partial curve] | 
36 | CCCCOc1ccc(CN2CCCCC2)cc1 |  | inconclusive: 12%
37 | COc1ccc(C(=O)NCc2ccccc2C)cc1S(=O)(=O)NC1CCCC1 |  | inconclusive: -0.0092%
38 | CCC1CCCCN1CCCNC(=O)C1CCC(=O)N1Cc1ccc(C)cc1 (stereo unspecified) |  | inconclusive: 2.6%
39 | COc1ccc(-c2noc(-c3cccc(OC)c3OC)n2)cc1OC | inconclusive: 0.651 µM [rising, full curve, poor fit] | 
40 | Cn1c(Br)nc2c1c(=O)n(Cc1ccccc1)c(=O)n2C |  | inconclusive: 8.37%
41 | CC(C)c1ccc(NC(=O)c2cc(S(=O)(=O)NCc3ccccc3Cl)ccc2F)cc1 |  | inconclusive: -2.33%

Three compounds out of the list, arranged by SMILES length, ascending.
Row | SMILES | Potency | activity change, negative = inhibition
36 | CCCCOc1ccc(CN2CCCCC2)cc1 |  | inconclusive: 12%
4 | O=C(COC(=O)c1n[nH]c2ccccc12)NC(=O)NC1CCCC1 | inconclusive: 18.4 µM [falling, partial curve] | 
13 | CCOC(=O)c1[nH]c(C)c(C(=O)OCC(=O)NC2CCS(=O)(=O)C2)c1C (stereo unspecified) | inconclusive: 12.6 µM [falling, partial curve] | 

From PubChem BioAssay AID493014 (National Center for Advancing Translational Sciences (NCATS), 2011)
